Source: PubChem BioAssay AID2685 (National Center for Advancing Translational Sciences (NCATS), 2010)
The campaign covered roughly 320,000 compounds. About 2,100 (0.66%) were called active. The shares of active, inactive and inconclusive entries below differ from those in the screen. Calls follow the shape of the dose curve; as a rule, active = well fitted inhibition curve with a large enough effect in the signal ratio, with a control signal flat (not every such curve was filed as active); inconclusive = small, poorly fitted or top-dose-only effect, or effect the other way, or a change in a side signal; inactive = flat fitted curve, though single readings scatter; the % refers to the signal ratio. Where the call is inconclusive, the potency comes from a doubtful curve fit.

Test: qHTS Assay for Lipid Storage Modulators in Drosophila S3 Cells
Settings: BODIPY lipid droplet fluorescence, 18-24 h, cells fed with added oleic acid; lipid storage change, negative = inhibition: at 46.1 µM (top of the series) unless noted
Summary of the method: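 Drosophila S3 cells got compounds at several concentrations plus oleic acid (400 uM solution). Laser-scanning cytometry with 488 nm excitation read lipid droplets at 500-530 nm and cells at 575-640 nm. Percent activity was relative to 20 uM Triacsin C.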
% is scaled to controls: 0 for no effect and ±100 for the full control effect; potency is read from the fitted curve at half-maximal effect.

| Compound | lipid storage change, negative = inhibition | Potency |
| --- | --- | --- |
| C=CCn1c(COc2cccc3ccc(C)nc23)nnc1SCC(=O)OC | inconclusive: -8.21% | – |
| COc1ccc(C2OC[C@H]3O[C@H](O)[C@H](NC(C)=O)[C@@H](O)[C@@H]3O2)cc1 (some centres undefined) | inconclusive: 40.2% | – |
| O=C(Nc1ccccc1N1CCCC1)c1cc(S(=O)(=O)N2CCOCC2)ccc1Cl | inconclusive: 36.2% | – |
| Cc1nc(SCCO)c2oc3ccccc3c2n1 | inconclusive: 14.9% | – |
| CSCCC(NC(=O)/C(=C/c1ccco1)NC(=O)c1ccc(Br)o1)C(=O)O (centres undefined) | inconclusive: -22.5% | – |
| Cc1cccc(S(=O)(=O)Nc2ccc(-c3ccc4nncn4n3)cc2)c1 | inconclusive | – |
| Cc1ccc(C)c(N2N=C(C(=O)O)CCC2=O)c1 | inconclusive: -23.6% | – |
| CC1CCCCN1C(=O)CCNC(=O)Cn1cnc2ccccc2c1=O (centres undefined) | – | inconclusive: 29.1 µM [activator, single point] |
| O=C(Cn1c(=O)oc2ccccc21)NC(=O)NCc1ccco1 | inconclusive: 2.45% | – |
| CCOC(=O)C1=C(N)OC2=C(C(=O)CC(C)C2)C1c1cccnc1 (centres undefined) | inconclusive: 18.5% | – |
| Cc1cc(C)c(C(=O)/C=C/c2ccco2)c(=O)[nH]1 | inconclusive: 9.88% | – |
| O=C(CSc1nccn1-c1ccccc1)N1CCc2ccccc21 | inconclusive: 46.6% | – |
| Cc1ccc(C)c(SCC(=O)OCC(=O)c2ccco2)c1 | inconclusive: -6.92% | – |
| COn1c(C)c(C(C)=O)c2c3nonc3ccc21 | inconclusive: 26.3% | – |
| Cc1nc2nc[nH]n2c(=O)c1NS(=O)(=O)c1ccc([N+](=O)[O-])cc1 | – | inconclusive: 29.1 µM [falling, single point] |
| COc1ccc(OC)c(N(CC(=O)Nc2ccc(NC(C)=O)cc2)S(C)(=O)=O)c1 | inactive | – |
| c1ccc(-c2cc(N3CCOCC3)nc(-c3ccccc3)n2)cc1 | – | inconclusive: 1.3 µM [activator, full curve] |
| Cc1ccc(S(C)(=O)=O)cc1C(=O)OCC(=O)N(Cc1ccccc1)Cc1ccccc1 | inconclusive: 5.87% | – |
| Clc1ccccc1-c1nnc2sc(-c3ccco3)nn12 | inconclusive: 39.3% | – |
| C=CCN(CC=C)C(=O)c1ccccc1NC(=O)c1ccccc1C | inconclusive: 75.2% | – |
| C=C(C)c1cccc(C(C)(C)NC(=O)NCCCn2ccnc2)c1 | – | inconclusive: 2.06 µM [activator, full curve, poor fit] |
| COc1cc(C(=O)NCCC2=CCCCC2)ccc1OCc1c(C)noc1C | inconclusive: 22.9% | – |
| COc1cc(OC)c(NC(=S)Nc2cc(Cl)cc(Cl)c2)cc1Cl | inconclusive: 13.4% | – |
| O=S(=O)(N1CCCCCC1)N1CCNCC1 | inconclusive: 24.3% | – |
| Cn1c(O)c(N=NC(=O)Cn2c(C(F)(F)F)nc3ccccc32)c2ccccc21 | inconclusive: 22.5% | – |

| Compound | lipid storage change, negative = inhibition | Potency |
| --- | --- | --- |
| CN(C)CCCNc1c2c(nc3cc(-c4cccc(F)c4)nn13)CCC2 | inconclusive: 36.4% | – |
| Cc1cccc(N2N=C(C(=O)Nc3nc(C)cs3)CCC2=O)c1 | inconclusive: -5.58% [at 9.22 µM] | – |
| COc1cc(C(=S)N2CCN(C(c3ccccc3)c3ccccc3)CC2)cc(OC)c1O | inconclusive: -19.3% | – |
| COc1ccc(Cc2nc3ccc(C(=O)N4CCCC4)cc3o2)cc1OC | – | inconclusive: 29.1 µM [activator, single point] |
| Cc1cc2c(sc3ccccc32)c(C)n1 | inconclusive: 15% | – |
| O=S1(=O)N=C(Nc2ccc(O)c(CN3CCCCC3)c2)c2ccccc21 | inconclusive: 5.09% | – |
| Cc1noc(C)c1CSCC(=O)N(CCC(C)C)c1c(N)n(Cc2ccccc2)c(=O)[nH]c1=O | – | inconclusive: 14.6 µM [activator, partial curve, poor fit] |
| CCN1CCCC1CNC(=O)C(=O)NCCc1ccc(OC)c(OC)c1 (centres undefined) | – | inconclusive: 2.06 µM [falling, partial curve] |
| O=C(NC1CCCCCC1)C1CCCN1S(=O)(=O)c1cccc2cccnc12 (centres undefined) | – | inconclusive: 13 µM [activator, partial curve] |
| CC(=O)Nc1ccc(NC(=O)COC(=O)c2ccc(Cl)nc2)cc1 | inconclusive | – |
| CCOC(=O)c1[nH]c(C)c(C(=O)Nc2ccc(C)c(Cl)c2)c1C | inconclusive: -19.5% | – |
| COc1ccc(CCN(Cc2nc3ccccc3c(=O)[nH]2)C(=O)c2ccco2)cc1OC | – | inconclusive: 0.184 µM [activator, full curve] |
| COc1ccc(-c2nc3ccc(C)cn3c2NCc2ccc3c(c2)OCO3)cc1 | – | inconclusive: 18.4 µM [falling, partial curve, poor fit] |
| CCn1c(SCc2nc3cc(OC)c(OC)cc3c(=O)[nH]2)nnc1-c1ccncc1 | inconclusive: 16.8% | – |
| COc1ccc(OC)c(-c2cc(C(F)(F)F)c3c(n2)sc2c(O)cc(=O)[nH]c23)c1 | inconclusive: 18.2% | – |
| Nc1ccc(C#Cc2ccc3c(=O)c4ccccc4oc3c2)cc1 | inconclusive: 8.11% | – |
| CCn1c(=S)[nH]c2scc(-c3cccs3)c2c1=O | inconclusive: 1.46% | – |
| CCCCN(CC)CCCNC(=O)c1cn(C)c2ccc(S(=O)(=O)N(C)C3CCCCC3)cc2c1=O | – | inconclusive: 16.4 µM [activator, single point] |
| Cc1ccc2cc(C)c(SCC(=O)Nc3ccc(S(=O)(=O)N4CCCC4)cc3)nc2c1 | – | inconclusive: 13 µM [falling, partial curve, poor fit] |
| Cc1cccc(C)c1NC(=O)CNC(=O)c1ccc(S(=O)(=O)NCc2ccco2)cc1 | inconclusive: 28.9% | – |
| COc1cccc(-c2cc(C(F)(F)F)n3nc(C(=O)Nc4c(C)n(C)n(-c5ccccc5)c4=O)cc3n2)c1 | inconclusive: 118% | – |
| COC(=O)c1cc(NC(=O)c2cccc(Cl)c2)c(=O)oc1/C=C/Nc1cc(C)cc(C)c1 | inconclusive: -16.7% | – |
| COC(=O)c1ccc(NC(=O)Cc2ccccc2)cc1 | – | inconclusive: 1.16 µM [activator, single point] |
| CCOc1ccc(/C=C/C(=O)NC2CCCCC2)cc1 | – | inconclusive: 25.9 µM [activator, single point] |

Among those listed so far, these have fluorine.

| Compound | lipid storage change, negative = inhibition | Potency |
| --- | --- | --- |
| Cn1c(O)c(N=NC(=O)Cn2c(C(F)(F)F)nc3ccccc32)c2ccccc21 | inconclusive: 22.5% | – |
| CN(C)CCCNc1c2c(nc3cc(-c4cccc(F)c4)nn13)CCC2 | inconclusive: 36.4% | – |
| COc1ccc(OC)c(-c2cc(C(F)(F)F)c3c(n2)sc2c(O)cc(=O)[nH]c23)c1 | inconclusive: 18.2% | – |
| COc1cccc(-c2cc(C(F)(F)F)n3nc(C(=O)Nc4c(C)n(C)n(-c5ccccc5)c4=O)cc3n2)c1 | inconclusive: 118% | – |
